Laboratory results published in the supplement of paper PMC6414424.
± gives the standard deviation of the averaged measurements. This is one part of the list.

test system: APPdp1-6 iPSC-derived neurons; experiment: pThr231Tau/total Tau ratio Z-score vs DMSO vehicle wells; higher = more pThr231Tau relative to total Tau; conditions: 5 µM; treatment time 5 days

Compound | pThr231Tau/total Tau ratio Z-score
Cc1c(Cl)cccc1Nc1ncccc1C(=O)O [Prestw-1104] | 0.304 ± 1.4
C[C@H]1[C@H](NC(=O)/C(=N\OC(C)(C)C(=O)O)c2csc(N)n2)C(=O)N1S(=O)(=O)O [AZTREONAM, antibacterial] | 0.344 ± 1.4
C[C@H]1[C@H](NC(=O)/C(=N\OC(C)(C)C(=O)O)c2csc(N)n2)C(=O)N1S(=O)(=O)O [Prestw-185] | -0.205 ± 1.9
COc1cc(CNC(=O)CCCC/C=C\C(C)C)ccc1O | 1.24 ± 0.81
CCc1c2c(nc3ccc(OC(=O)N4CCC(N5CCCCC5)CC4)cc13)-c1cc3c(c(=O)n1C2)COC(=O)[C@]3(O)CC [Prestw-1494] | -0.69 ± 0.41
CN1CCC(=C2c3ccccc3C=Cc3ccccc32)CC1 [Prestw-103] | -0.498 ± 2
N=C(N)NC(=N)NCCc1ccccc1 [Prestw-179] | -0.566 ± 0.75
CC(C)(C)NC[C@@H](O)COc1cccc2c1CCCC2=O [Prestw-857] | 0.663 ± 0.46
CO[C@H]1/C=C/O[C@@]2(C)Oc3c(C)c(O)c4c(O)c(c(/C=N/N5CCN(C6CCCC6)CC5)c(O)c4c3C2=O)NC(=O)/C(C)=C\C=C\[C@H](C)[C@H](O)[C@@H](C)[C@@H](O)[C@@H](C)[C@H](OC(C)=O)[C@@H]1C [Prestw-1157] | -1.17 ± 0.2
CC(C)(CO)[C@@H](O)C(=O)NCCC(=O)NCCSSCCNC(=O)CCNC(=O)[C@H](O)C(C)(C)CO | 1.69 ± 1.8
CN(C)[C@@H]1C(=O)C(C(=O)NCNCCCC[C@H](N)C(=O)O)=C(O)[C@@]2(O)C(=O)C3=C(O)c4c(O)cccc4[C@@](C)(O)[C@H]3C[C@@H]12 [Prestw-1000] | 0.765 ± 1.4
CN1CCN(CC/C=C2/c3ccccc3Sc3ccc(S(=O)(=O)N(C)C)cc32)CC1 [THIOTHIXENE    Therap cat:  Antipsychotic] | 0.701 ± 2.4
C=C1CC[C@H](O)C/C1=C/C=C1\CCC[C@]2(C)[C@@H]([C@H](C)CCCC(C)C)CC[C@@H]12 | 0.984 ± 1.6
NNCCc1ccccc1 [Prestw-170] | -0.145 ± 1.9
CCCc1cc(C(N)=S)ccn1 [Prestw-1321] | -0.00624 ± 1
CC(=O)S[C@@H]1CC2=CC(=O)CC[C@]2(C)[C@H]2CC[C@@]3(C)[C@@H](CC[C@@]34CCC(=O)O4)[C@H]12 [Prestw-128] | 0.517 ± 1.1
CC(Cc1cccc(C(F)(F)F)c1)NCCOC(=O)c1ccccc1 (stereo not drawn) [Prestw-367] | 0.00761 ± 0.1
C=CC(N)CCC(=O)O (stereo not drawn) [Prestw-501] | 0.696 ± 1.4
CCCCCCCCCCCCCCCC(=O)OC/C=C(C)/C=C/C=C(C)/C=C/C1=C(C)CCCC1(C)C | 0.362 ± 0.5

Exported in markdown: entries from further up.

| Compound | pThr231Tau/total Tau ratio Z-score |
| --- | --- |
| Cc1c(Cl)cccc1Nc1ncccc1C(=O)O [Prestw-1104] | 0.304 ± 1.4 |
| C[C@H]1[C@H](NC(=O)/C(=N\OC(C)(C)C(=O)O)c2csc(N)n2)C(=O)N1S(=O)(=O)O [AZTREONAM, antibacterial] | 0.344 ± 1.4 |

Next part.

Compound | pThr231Tau/total Tau ratio Z-score
NS(=O)(=O)c1cc(C2(O)NC(=O)c3ccccc32)ccc1Cl (stereo not drawn) [Prestw-351] | 0.0927 ± 0.45
CCN[C@H]1CN(CCCOC)S(=O)(=O)c2sc(S(N)(=O)=O)cc21 [Prestw-365] | 0.334 ± 0.18
CC(=O)OCC(=O)[C@@]1(O)CC[C@H]2[C@@H]3CCC4=CC(=O)CC[C@]4(C)[C@H]3[C@@H](O)C[C@@]21C [Prestw-1486] | 0.695 ± 0.35
Cc1ncc(C[n+]2csc(CCO)c2C)c(N)n1 [THIAMINE, vitamin B1, enzyme cofactor] | 0.255 ± 0.76
Cc1ncc(C[n+]2csc(CCO)c2C)c(N)n1 [Prestw-631] | -0.0806 ± 1.3
CC(C)c1c(C(=O)Nc2ccccc2)c(-c2ccccc2)c(-c2ccc(F)cc2)n1CC[C@@H](O)C[C@@H](O)CC(=O)O [Prestw-1232] | -3.78 ± 0.49
CC(C)c1c(C(=O)Nc2ccccc2)c(-c2ccccc2)c(-c2ccc(F)cc2)n1CC[C@@H](O)C[C@@H](O)CC(=O)O [ATORVASTATIN    Therap cat: antilipidemic] | -2.3 ± 1.1
CCCCN(CCCC)CCCOC(=O)c1ccc(N)cc1 [Prestw-831] | 1.04 ± 0.32
COC(=O)Nc1nc2cc(C(=O)c3cccs3)ccc2[nH]1 [Prestw-100] | -3.95 ± 0.3
Cc1ccc(C(=O)c2ccc(CC(=O)O)n2C)cc1 [Prestw-856] | -0.311 ± 0.97
CC[N+](C)(CC)CCOC(=O)C1c2ccccc2Oc2ccccc21 [Prestw-1066] | -0.531 ± 1.3
FC(F)(F)C(Cl)Br (stereo not drawn) [HALOTHANE, anesthetic] | 0.294 ± 1.4
O=C(O)CN1C(=O)c2cccc3cccc(c23)C1=O [ALRESTATIN    Therap cat: aldose reductase inhibitor] | 2.64 ± 0.95
CC(=O)OCC(=O)[C@@]1(O)CC[C@H]2[C@@H]3CCC4=CC(=O)C=C[C@]4(C)[C@@]3(Cl)[C@@H](Cl)C[C@@]21C | 1.36 ± 1.3
O=C(O)CCCCCCCC(=O)O [Azelaic acid] | 2.43 ± 4
CC(=O)OCC(=O)[C@@]1(O)CC[C@H]2[C@@H]3CCC4=CC(=O)CC[C@]4(C)[C@@]3(F)[C@@H](O)C[C@@]21C [Prestw-281] | -0.516 ± 0.018
NC(N)=NS(=O)(=O)c1ccc(N)cc1 [Prestw-10] | 0.326 ± 2.2
OC(Cn1cncn1)(Cn1cncn1)c1ccc(F)cc1F [Prestw-1417] | 1.47 ± 2.2
CCCOc1cc(N)ccc1C(=O)OCCN(CC)CC [Prestw-1059] | -2.11 ± 1.4
